This assay deals with WTF1 (yeast two-hybrid fusion, transit peptide removed). Put plainly: two-hybrid.

These are yes or no findings as the source states them, for the method shown. Where a sequence is shown, tags or fusion partners need not be part of it.

B1: EMB1006 (yeast two-hybrid fusion, transit peptide removed) (protein, UniProt Q9FGR7 45-723)
chain: ATSPSSSSSSPSIFLSCFDDALPDKIQQPENSTINSEESECEEEDDEEGDDFTDPILKFFKSRTLTSESTADPARESKFSLQKNRRTSWHLAPDFADPETEIESKPEESVFVTNQQTLGVHIPFESGVAREILELAKNLKENQTLGEMLSGFERRVSDTECVEALVMMGESGFVKSCLYFYEWMSLQEPSLASPRACSVLFTLLGRERMADYILLLLSNLPDKEEFRDVRLYNAAISGLSASQRYDDAWEVYEAMDKINVYPDNVTCAILITTLRKAGRSAKEVWEIFEKMSEKGVKWSQDVFGGLVKSFCDEGLKEEALVIQTEMEKKGIRSNTIVYNTLMDAYNKSNHIEEVEGLFTEMRDKGLKPSAATYNILMDAYARRMQPDIVETLLREMEDLGLEPNVKSYTCLISAYGRTKKMSDMAADAFLRMKKVGLKPSSHSYTALIHAYSVSGWHEKAYASFEEMCKEGIKPSVETYTSVLDAFRRSGDTGKLMEIWKLMLREKIKGTRITYNTLLDGFAKQGLYIEARDVVSEFSKMGLQPSVMTYNMLMNAYARGGQDAKLPQLLKEMAALNLKPDSITYSTMIYAFVRVRDFKRAFFYHKMMVKSGQVPDPRSYEKLRAILEDKAKTKNRKDKTAILGIINSKFGRVKAKTKGKKDEFWKYKTNRTTSPGRHRS
In the case of B1, the binding entry is on record as “no binding”.

These data come from doi:10.1101/2023.12.07.570680.
